Test results taken from publication PMC5566180.
No constants are given. Whether binding was seen depends on the method and setting. In cells and extracts the contact can be indirect. Some entries that bind do so weakly or less than the wild type. Tags and fused reporters may be left off the sequences shown.

Biological target: T1, LOXL3-flag (murine lysyl oxidase-like 3) (mouse) (UniProt Q9Z175)
T1 sequence: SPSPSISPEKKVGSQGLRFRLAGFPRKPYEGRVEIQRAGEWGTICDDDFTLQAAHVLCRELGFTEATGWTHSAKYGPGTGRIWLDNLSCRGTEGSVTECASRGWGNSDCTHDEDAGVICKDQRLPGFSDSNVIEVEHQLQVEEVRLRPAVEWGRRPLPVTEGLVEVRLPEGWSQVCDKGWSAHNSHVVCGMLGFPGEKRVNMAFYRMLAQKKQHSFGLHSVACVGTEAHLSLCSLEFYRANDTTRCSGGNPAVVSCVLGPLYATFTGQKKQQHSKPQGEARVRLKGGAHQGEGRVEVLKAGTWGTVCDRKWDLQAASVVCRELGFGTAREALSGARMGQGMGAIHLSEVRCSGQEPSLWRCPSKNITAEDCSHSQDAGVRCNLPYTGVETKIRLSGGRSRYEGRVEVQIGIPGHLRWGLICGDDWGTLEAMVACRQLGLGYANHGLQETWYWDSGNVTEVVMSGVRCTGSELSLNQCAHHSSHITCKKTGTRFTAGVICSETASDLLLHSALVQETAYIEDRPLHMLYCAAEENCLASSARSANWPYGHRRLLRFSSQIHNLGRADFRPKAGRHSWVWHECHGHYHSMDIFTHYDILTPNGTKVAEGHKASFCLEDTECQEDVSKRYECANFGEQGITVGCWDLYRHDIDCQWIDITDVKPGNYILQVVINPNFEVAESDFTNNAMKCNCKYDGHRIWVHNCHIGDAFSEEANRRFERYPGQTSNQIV
Test: co-IP; COS7 cells cotransfected; 1 mg lysate (50 mM Tris-HCl pH 7.4-7.5, 300 mM NaCl, 1% Triton X-100) on Anti-FlagM2 affinity gel overnight; Flag-tagged protein as bait; eluted by boiling in SDS lysis buffer, Western blot

binding: binds
B1: His-tagged full-length murine APMAP_E1 (adipocyte plasma membrane-associated protein) (protein, UniProt Q9D7N9 1-415)
chain: MSEADGLRQRRPLRPQVVTDDGQVPEVKEGSSFSGRVFRMTFLMLAVSLAIPLLGAMMLLESPIDPQSFSFKEPPFMFGVLHPNTKLRQAERLFENQLSGPESIVNIGDVLFTGTADGRVVKLENGEIETIARFGSGPCKTRDDEPTCGRPLGIRAGPNGTLFVVDAYKGLFEVNPQKRSVKLLLSSETPIEGKKMSFVNDLTVTRDGRKIYFTDSSSKWQRRDYLLLVMEATDDGRLLEYDTVTKEVKVLLDQLQFPNGVQLSPEEDFVLVAETTMARIRRVYVSGLMKGGADMFVENMPGFPDNIRPSSSGGYWVAAATIRANPGFSMLDFLSDKPFIKRMIFKMFSQETVMKFVPRYSLVLEVSDSGAFRRSLHDPDGQVVTYVSEAHEHDGYLYLGSFRSPFICRLSLQSI
